# No constants are given. Whether binding was seen depends on the method and setting. In cells and extracts the contact can be indirect. Some results given as binding are weak or reduced against the parent protein; the word gives no strength.
# Protein sequences, listed by entry. Tags and fused reporters are not part of them.
# UniProt P63104: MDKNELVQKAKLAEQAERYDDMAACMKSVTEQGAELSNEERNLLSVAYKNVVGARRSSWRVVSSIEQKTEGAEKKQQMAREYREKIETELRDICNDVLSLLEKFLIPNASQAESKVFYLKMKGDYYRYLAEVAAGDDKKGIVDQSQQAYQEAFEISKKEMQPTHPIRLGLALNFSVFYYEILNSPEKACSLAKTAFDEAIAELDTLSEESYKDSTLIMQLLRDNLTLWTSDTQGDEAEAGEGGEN
# UniProt Q13009: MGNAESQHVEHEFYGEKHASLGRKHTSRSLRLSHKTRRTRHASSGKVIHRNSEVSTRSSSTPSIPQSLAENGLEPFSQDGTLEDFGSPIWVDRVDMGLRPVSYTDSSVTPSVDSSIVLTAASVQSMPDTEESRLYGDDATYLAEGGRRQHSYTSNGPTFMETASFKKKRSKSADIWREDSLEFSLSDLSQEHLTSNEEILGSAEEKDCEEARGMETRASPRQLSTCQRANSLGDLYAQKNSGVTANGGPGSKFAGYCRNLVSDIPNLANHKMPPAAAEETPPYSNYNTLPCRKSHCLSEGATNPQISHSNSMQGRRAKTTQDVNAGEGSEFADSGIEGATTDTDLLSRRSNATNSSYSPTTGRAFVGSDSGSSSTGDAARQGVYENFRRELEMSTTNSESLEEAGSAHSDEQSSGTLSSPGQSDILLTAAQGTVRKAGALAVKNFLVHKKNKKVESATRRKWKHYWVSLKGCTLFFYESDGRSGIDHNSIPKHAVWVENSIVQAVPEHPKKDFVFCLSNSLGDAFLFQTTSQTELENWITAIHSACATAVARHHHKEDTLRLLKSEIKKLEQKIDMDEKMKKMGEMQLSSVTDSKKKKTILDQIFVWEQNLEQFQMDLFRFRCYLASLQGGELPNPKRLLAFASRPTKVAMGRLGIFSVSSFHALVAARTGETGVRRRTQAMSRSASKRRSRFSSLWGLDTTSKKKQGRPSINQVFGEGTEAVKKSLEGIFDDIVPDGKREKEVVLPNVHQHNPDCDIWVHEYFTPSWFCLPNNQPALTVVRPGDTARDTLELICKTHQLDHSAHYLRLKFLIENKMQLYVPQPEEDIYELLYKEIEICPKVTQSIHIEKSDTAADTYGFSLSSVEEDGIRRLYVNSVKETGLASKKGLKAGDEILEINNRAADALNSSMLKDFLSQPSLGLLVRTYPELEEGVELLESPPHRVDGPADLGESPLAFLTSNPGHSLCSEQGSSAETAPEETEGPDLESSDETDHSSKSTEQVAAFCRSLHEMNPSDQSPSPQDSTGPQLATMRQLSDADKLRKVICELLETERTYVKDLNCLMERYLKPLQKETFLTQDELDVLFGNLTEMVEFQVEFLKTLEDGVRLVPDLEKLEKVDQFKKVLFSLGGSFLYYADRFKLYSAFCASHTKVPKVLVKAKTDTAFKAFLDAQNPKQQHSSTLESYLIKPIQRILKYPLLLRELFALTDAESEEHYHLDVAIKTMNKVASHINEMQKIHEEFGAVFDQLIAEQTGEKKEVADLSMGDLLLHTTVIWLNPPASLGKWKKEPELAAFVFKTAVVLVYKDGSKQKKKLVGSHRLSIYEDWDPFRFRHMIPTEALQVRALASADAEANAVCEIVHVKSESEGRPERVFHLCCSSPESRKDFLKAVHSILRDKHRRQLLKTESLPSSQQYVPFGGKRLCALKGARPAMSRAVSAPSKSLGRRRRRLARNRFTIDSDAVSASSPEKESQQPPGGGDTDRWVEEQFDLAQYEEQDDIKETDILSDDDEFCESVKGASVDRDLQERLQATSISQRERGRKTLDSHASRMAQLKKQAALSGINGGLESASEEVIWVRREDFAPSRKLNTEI
# UniProt Q8TEW0: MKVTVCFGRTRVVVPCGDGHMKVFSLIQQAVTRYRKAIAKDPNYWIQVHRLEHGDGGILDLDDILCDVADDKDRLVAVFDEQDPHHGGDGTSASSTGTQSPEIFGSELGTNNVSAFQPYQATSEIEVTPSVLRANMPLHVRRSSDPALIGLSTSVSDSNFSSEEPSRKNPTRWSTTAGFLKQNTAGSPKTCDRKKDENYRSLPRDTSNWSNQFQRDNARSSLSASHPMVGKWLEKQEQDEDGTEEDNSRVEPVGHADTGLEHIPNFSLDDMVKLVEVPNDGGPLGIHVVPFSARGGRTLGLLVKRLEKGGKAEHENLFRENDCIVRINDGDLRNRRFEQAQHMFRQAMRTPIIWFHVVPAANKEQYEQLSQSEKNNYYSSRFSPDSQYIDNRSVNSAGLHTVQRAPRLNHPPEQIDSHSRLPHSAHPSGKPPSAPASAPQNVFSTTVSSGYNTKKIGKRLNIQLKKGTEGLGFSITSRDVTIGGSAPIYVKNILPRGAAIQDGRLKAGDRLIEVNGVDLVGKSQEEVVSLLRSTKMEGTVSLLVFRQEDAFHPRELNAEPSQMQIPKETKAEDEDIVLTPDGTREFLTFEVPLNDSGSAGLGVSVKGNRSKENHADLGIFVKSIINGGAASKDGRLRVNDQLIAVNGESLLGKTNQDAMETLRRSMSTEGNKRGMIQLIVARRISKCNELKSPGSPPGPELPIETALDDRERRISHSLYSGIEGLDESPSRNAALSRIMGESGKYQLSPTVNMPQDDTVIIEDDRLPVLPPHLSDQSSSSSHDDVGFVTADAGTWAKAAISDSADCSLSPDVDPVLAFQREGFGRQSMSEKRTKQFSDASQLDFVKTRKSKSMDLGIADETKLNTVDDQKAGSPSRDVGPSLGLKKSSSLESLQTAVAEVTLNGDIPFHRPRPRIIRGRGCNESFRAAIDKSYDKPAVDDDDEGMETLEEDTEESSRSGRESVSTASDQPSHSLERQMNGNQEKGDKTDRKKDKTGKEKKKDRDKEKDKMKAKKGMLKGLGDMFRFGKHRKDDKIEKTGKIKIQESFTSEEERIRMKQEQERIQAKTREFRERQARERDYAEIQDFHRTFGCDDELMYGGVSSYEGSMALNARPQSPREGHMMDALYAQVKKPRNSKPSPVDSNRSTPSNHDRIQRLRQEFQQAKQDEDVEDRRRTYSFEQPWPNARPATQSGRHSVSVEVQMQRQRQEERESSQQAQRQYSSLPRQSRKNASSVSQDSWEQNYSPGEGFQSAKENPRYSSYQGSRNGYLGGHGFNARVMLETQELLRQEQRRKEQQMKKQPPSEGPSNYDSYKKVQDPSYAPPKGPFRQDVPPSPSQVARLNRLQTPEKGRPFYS
# Key:
# [1] = molecular target: 14-3-3ζ protein (human (endogenous in A549 and H1299)) (UniProt P63104); assay: co-IP; endogenous proteins; lysates of infected A549 and H1299 cells (control or Par3 shRNA) in IP buffer incubated with anti-Par3 or anti-14-3-3ζ antibody covalently coupled to protein A/G-agarose beads, 4°C overnight; Western blotting
# GST-14-3-3ζ (human) = GST-14-3-3ζ (human) (UniProt P63104); assay: pull-down; purified GST-14-3-3ζ and glutathione-agarose beads incubated with lysate supernatant of infected cells (control or Par3 shRNA), 4°C overnight; Western blotting; only the target purified
Substance,binding [1],binding (GST-14-3-3ζ (human))
Tiam1 (T lymphoma invasion and metastasis) (from UniProt Q13009 1-1591),binds,binds
Partitioning defective protein 3 (Par3) (from UniProt Q8TEW0 1-1356),binds,binds
